Test results taken from publication PMC4307257.

By UniProt entry, the sequences of proteins in these tests, tags left out. Residues count along the entry.
UniProt P63039, residues 27-573: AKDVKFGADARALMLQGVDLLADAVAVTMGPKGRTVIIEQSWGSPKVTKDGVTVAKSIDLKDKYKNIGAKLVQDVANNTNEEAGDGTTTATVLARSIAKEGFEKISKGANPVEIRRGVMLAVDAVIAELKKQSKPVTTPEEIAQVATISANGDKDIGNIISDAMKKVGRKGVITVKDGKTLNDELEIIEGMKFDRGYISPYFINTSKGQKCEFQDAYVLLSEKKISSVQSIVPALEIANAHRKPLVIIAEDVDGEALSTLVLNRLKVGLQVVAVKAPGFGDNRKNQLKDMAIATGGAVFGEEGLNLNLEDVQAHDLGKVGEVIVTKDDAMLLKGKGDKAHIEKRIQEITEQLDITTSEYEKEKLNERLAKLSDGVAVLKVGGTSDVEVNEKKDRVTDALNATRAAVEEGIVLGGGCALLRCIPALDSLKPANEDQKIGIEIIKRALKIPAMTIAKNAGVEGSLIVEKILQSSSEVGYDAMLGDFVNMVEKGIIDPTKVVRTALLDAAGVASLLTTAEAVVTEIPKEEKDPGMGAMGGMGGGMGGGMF
UniProt P15999, residues 44-553: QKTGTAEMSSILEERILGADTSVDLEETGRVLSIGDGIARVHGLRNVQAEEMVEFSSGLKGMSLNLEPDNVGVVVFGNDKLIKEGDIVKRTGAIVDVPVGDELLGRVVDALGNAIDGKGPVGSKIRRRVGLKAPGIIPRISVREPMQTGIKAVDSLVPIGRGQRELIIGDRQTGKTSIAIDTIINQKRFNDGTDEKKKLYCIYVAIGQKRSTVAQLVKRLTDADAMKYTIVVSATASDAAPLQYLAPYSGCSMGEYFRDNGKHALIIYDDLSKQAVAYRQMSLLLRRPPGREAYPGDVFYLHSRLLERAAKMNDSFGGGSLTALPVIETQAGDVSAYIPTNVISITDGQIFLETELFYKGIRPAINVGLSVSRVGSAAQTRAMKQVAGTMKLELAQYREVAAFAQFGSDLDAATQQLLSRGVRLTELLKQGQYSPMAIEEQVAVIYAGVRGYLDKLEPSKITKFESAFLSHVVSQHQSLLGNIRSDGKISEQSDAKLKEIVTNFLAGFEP
UniProt P10719, residues 47-529: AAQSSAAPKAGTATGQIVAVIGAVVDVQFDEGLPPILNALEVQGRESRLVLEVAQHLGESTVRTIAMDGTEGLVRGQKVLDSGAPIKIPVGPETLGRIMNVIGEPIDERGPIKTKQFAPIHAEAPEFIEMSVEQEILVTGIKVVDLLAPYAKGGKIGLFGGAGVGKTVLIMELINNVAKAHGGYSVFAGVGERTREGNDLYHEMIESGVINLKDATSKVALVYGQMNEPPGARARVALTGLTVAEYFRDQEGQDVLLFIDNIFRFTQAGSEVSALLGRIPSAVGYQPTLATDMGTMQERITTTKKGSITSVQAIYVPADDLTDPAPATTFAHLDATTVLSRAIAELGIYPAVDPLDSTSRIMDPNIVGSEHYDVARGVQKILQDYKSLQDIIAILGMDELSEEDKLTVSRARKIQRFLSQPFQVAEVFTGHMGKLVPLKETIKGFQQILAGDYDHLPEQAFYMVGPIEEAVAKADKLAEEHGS
UniProt P04764: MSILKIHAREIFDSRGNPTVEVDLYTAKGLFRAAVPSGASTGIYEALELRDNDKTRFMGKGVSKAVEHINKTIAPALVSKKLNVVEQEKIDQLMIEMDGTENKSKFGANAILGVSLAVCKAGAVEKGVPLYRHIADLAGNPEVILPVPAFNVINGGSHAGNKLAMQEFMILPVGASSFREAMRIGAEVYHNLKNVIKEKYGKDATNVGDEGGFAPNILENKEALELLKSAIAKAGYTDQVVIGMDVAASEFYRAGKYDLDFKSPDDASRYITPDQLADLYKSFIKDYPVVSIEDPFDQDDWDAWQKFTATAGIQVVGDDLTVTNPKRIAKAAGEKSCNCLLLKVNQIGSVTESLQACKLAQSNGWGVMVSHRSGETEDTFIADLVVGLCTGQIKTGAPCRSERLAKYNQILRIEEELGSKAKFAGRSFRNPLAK
UniProt Q66HD0, residues 22-804: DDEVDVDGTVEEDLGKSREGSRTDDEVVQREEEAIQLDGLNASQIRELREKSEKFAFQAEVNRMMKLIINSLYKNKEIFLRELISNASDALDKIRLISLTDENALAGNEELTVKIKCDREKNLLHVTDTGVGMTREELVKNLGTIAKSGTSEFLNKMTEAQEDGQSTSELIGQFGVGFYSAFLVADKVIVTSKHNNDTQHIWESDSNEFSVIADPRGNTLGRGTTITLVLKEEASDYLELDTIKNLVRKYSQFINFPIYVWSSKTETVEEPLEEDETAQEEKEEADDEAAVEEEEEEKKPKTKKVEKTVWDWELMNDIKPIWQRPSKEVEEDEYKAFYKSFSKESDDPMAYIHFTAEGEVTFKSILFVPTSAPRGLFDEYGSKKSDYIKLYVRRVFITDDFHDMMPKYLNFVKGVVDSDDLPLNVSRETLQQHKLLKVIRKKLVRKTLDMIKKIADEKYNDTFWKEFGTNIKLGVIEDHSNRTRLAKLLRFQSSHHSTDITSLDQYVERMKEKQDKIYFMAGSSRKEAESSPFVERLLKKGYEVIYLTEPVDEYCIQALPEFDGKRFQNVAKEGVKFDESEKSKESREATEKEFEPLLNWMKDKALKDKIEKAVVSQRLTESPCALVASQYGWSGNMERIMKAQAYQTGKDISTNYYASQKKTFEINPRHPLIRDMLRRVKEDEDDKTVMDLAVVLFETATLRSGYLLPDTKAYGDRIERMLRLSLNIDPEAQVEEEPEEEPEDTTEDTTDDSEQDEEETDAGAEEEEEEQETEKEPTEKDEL
UniProt P10860, residues 54-558: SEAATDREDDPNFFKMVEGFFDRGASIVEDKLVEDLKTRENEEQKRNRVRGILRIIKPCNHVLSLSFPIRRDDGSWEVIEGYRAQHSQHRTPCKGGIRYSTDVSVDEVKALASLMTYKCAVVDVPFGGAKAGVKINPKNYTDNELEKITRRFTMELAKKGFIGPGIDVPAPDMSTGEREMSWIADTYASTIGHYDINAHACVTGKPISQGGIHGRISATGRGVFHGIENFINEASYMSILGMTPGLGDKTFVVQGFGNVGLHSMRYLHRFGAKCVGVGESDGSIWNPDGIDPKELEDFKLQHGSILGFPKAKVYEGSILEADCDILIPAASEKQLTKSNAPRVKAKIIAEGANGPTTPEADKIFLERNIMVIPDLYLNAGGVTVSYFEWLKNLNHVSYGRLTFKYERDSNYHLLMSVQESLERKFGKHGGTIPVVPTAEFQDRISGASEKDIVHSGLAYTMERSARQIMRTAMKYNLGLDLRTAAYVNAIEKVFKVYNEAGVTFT
UniProt P09606: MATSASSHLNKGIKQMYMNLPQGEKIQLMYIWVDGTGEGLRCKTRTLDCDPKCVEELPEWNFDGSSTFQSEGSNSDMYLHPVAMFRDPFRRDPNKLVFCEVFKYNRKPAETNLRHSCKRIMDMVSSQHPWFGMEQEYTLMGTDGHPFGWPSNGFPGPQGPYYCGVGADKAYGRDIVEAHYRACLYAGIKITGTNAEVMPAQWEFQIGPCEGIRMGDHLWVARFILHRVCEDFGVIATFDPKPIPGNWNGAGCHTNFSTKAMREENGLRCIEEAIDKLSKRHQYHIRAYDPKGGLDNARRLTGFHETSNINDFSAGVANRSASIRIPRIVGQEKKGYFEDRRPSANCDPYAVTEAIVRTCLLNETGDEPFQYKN
UniProt P04906: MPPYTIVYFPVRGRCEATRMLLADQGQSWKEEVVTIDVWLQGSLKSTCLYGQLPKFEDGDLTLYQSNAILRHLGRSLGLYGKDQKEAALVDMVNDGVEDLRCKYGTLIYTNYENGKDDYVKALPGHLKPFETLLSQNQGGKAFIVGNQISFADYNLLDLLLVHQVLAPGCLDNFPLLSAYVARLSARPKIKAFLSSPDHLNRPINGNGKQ
UniProt P63018: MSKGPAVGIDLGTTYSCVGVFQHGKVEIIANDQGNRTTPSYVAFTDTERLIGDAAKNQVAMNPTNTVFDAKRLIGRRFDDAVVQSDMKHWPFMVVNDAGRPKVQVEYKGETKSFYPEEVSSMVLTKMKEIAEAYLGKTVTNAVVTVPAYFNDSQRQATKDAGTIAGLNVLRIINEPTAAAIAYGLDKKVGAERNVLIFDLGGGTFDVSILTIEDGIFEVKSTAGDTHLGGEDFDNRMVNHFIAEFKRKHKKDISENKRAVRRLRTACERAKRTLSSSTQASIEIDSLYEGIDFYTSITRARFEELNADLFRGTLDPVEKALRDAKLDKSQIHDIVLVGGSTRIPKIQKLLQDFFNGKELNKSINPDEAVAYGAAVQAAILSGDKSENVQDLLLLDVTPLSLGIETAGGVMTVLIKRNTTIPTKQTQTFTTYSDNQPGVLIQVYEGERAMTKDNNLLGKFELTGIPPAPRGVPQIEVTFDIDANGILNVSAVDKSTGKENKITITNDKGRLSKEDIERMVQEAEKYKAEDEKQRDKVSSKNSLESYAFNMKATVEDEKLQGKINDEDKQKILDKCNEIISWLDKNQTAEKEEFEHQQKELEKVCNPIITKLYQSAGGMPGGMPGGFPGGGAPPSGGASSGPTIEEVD
UniProt Q6IG03: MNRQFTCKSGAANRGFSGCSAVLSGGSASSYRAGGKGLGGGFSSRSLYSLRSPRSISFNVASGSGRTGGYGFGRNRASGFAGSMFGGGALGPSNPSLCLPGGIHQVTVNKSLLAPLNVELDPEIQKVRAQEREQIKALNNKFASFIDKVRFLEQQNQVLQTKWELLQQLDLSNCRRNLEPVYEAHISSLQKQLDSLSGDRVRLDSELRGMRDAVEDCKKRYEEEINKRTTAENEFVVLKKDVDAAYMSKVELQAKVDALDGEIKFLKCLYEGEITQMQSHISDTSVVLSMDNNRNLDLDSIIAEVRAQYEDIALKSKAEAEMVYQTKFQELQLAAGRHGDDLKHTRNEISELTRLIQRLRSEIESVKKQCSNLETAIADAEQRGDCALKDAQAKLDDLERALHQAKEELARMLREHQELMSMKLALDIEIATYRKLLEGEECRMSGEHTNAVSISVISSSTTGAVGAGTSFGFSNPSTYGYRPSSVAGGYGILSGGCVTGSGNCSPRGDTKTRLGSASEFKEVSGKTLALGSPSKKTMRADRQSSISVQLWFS
UniProt P04785, residues 20-509: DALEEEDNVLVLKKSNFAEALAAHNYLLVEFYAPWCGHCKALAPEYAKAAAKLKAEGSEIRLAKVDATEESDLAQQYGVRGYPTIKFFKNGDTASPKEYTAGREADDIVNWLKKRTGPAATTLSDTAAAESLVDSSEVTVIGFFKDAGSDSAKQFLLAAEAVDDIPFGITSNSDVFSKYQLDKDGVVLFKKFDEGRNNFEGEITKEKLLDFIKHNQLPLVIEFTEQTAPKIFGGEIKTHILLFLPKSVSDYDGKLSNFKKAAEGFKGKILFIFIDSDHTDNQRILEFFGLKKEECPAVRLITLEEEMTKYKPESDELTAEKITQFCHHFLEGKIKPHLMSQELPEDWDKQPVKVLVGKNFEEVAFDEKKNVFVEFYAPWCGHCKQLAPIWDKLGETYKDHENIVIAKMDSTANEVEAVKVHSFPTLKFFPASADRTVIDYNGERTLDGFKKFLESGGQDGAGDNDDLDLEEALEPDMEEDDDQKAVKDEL
UniProt P48721, residues 47-679: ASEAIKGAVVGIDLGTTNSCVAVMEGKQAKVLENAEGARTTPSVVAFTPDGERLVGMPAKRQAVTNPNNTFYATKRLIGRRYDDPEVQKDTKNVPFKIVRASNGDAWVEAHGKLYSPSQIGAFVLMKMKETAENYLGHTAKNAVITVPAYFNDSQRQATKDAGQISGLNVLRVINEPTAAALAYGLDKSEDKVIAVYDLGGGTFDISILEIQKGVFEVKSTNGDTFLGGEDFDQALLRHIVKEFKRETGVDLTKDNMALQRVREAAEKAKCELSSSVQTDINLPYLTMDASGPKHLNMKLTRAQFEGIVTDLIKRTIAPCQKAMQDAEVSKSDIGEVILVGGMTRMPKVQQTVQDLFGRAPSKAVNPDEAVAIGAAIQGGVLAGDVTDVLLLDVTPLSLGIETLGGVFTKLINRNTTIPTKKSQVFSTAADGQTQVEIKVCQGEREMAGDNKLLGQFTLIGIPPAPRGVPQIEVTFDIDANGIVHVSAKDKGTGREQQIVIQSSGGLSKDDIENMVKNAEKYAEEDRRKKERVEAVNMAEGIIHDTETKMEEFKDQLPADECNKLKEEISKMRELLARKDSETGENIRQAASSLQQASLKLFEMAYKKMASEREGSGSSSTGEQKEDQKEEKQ
UniProt P21707: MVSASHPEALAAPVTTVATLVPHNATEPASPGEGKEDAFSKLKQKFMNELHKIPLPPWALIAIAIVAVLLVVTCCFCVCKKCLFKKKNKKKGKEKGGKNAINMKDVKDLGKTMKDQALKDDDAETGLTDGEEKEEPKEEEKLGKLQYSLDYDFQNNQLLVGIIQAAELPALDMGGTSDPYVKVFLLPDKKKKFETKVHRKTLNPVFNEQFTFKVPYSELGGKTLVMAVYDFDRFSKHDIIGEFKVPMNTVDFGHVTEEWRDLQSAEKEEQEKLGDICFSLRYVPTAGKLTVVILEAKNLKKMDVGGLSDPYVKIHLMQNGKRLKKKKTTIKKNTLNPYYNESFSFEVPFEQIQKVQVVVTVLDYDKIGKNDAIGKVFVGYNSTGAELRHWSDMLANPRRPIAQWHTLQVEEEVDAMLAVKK

Each substance was assayed against human amyloid-β protein fragment (1–42) (human) (UniProt P05067) (assay: affinity purification with mass spectrometry; amyloid-β 1–42 immobilized on Affi-Gel 10; cleared 3% Triton X-100 lysate of rat brain homogenate (control; also after 70 µM H2O2, 0.1 mM isatin or both, 37 °C, 30 min), overnight at 4 °C, 50 mM potassium phosphate pH 7.4; elution with 1 M glycine pH 2.8, 150 mM NaCl; LC-MS/MS; ligand-free Affi-Gel 10 as control; only the target purified).

Question: For “60 kDa Heat shock protein, mitochondrial (from UniProt P63039 27-573)”, which binding is on record?
Answer: binds

Question: With “ATP synthase subunit α, mitochondrial (from UniProt P15999 44-553)” as the substance, how does the binding read?
Answer: binds

Question: With “ATP synthase subunit β, mitochondrial (from UniProt P10719 47-529)” as the substance, how does the binding read?
Answer: binds

Question: With “Alpha-enolase (from UniProt P04764 1-434)” as the substance, how does the binding read?
Answer: binds

Question: “Endoplasmin (from UniProt Q66HD0 22-804)” was tested. Which binding did it give?
Answer: binds

Question: For “Glutamate dehydrogenase 1, mitochondrial (from UniProt P10860 54-558)”, which binding is on record?
Answer: binds

Question: How did the binding turn out when “Glutamine synthetase (from UniProt P09606 1-373)” was run?
Answer: binds

Question: Which binding does the source give for “Glutathione S-transferase P OS (from UniProt P04906 1-210)” here?
Answer: binds

Question: Which binding does the source give for “Heat shock cognate 71 kDa protein (from UniProt P63018 1-646)” here?
Answer: binds

Question: For “Heat shock protein HSP 90-α (from UniProt P82995 1-733)”, which binding is on record?
Answer: binds

Question: For “Keratin, type II cytoskeletal 73 (from UniProt Q6IG03 1-553)”, which binding is on record?
Answer: binds

Question: With “Protein disulfide-isomerase (from UniProt P04785 20-509)” as the substance, how does the binding read?
Answer: binds

Question: How did the binding turn out when “Pyruvate kinase isozymes M1/M2 (from UniProt P11980 1-531)” was run?
Answer: binds

Question: With “Spectrin α chain, non-erythrocytic 1 (from UniProt P16086 1-2472)” as the substance, how does the binding read?
Answer: binds

Question: For “Stress-70 protein, mitochondrial (from UniProt P48721 47-679)”, which binding is on record?
Answer: binds

Question: Which binding does the source give for “Synaptotagmin-1 (from UniProt P21707 1-421)” here?
Answer: binds

These are yes or no findings as the source states them, for the method shown. In cells and extracts the contact can be indirect. A yes stands for co-enrichment or nearness to the bait. Other partners may have been found.
